# Literature values, collected in US11491138B2, “Injectable psychoactive alkaloid composition and preparation thereof” (PSILO SCIENTIFIC LTD, priority 2020, dated 2022).
# “And” between values parts separate entries of the source, which are not always exact repeats. Equal values may be shown once. At least one structure is not confirmed: it was looked up by name or label, or the drawing left a doubt.
# Settings: stated as known property
compound,measurement,value
CN(C)CCc1c[nH]c2cccc(OP(=O)(O)O)c12 [psilocybin],isoelectric point,4 pH and 4.0 pH
